The list shows a part of the results.

Protein sequences, listed by entry. Tags and fused reporters are not part of them.
UniProt Q0JBA9, entry or part of it: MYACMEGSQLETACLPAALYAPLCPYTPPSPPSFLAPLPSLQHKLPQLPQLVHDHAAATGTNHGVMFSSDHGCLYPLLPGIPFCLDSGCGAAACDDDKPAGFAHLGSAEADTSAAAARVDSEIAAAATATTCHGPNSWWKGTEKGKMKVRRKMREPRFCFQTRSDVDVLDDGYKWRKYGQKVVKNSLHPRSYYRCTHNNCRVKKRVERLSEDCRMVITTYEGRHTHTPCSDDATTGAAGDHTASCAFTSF

This assay addresses OsWRKY34 (Oryza sativa, UniProt Q0JBA9 1-250). The assay can be described thus: protein-binding microarray (RPBM); PBS, 2% BSA, 51.3 ng/ul salmon testes DNA, 50 uM zinc acetate, 200 nM TF, 25 C, 1 h; high values mean tight binding. The note with it: protein: recombinant; tags: N-terminal polyhistidine and DsRed monomer fusion (pET32a); label: CyDye5-dUTP incorporated in the synthesized complementary strand; 3' TTTTT single-stranded linker to array surface; dsDNA, one strand shown. In a few lines:
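The binding signal is fluorescence intensity per feature, in arbitrary units, read on an Axon 4000B scanner. Polyhistidine- and DsRed-tagged transcription factors (N-terminal fusions) from E. coli BL21-CodonPlus were purified on Ni–NTA and applied at 200 nM for 1 h at 25 °C to a double-stranded, BSA-blocked custom Agilent array in buffer with 50 µM zinc acetate.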
For “ACTGCCTTAAAATCCAGCGGTGGGACATTTTCGGGGTATACGGAGTCACCTAGTGCAG”, the binding signal is 8160 fluorescence intensity (a.u.).
With “GGTTGGGAGTTGGGGAGGAGGGGAGTTAGGCAAAGAGGAGCGGAGTCACCTAGTGCAG” the figure was 15100 fluorescence intensity (a.u.); with “CCGACAAATACTACCTCATGACCTTTTCTGCACTGTTTGTCGGAGTCACCTAGTGCAG”, 10400 fluorescence intensity (a.u.).
For “GAGTAAGATCCTGGATCTCTCCTTCTCGGCTTCTCTGTTTCGGAGTCACCTAGTGCAG” the value was 9280 fluorescence intensity (a.u.); for “CCTCAACATTGCCGAAAATTTTTGTCCCTGTACGGTTCTACGGAGTCACCTAGTGCAG”, 10700 fluorescence intensity (a.u.); for “CTCCGCCGCCTCGCCCCTGCAGACCAGCAAATCACTCCAACGGAGTCACCTAGTGCAG”, 10600 fluorescence intensity (a.u.).
For “ATCGACTATAATTTTACATATTTATACTATATCTTTTAATCGGAGTCACCTAGTGCAG” the value was 8910 fluorescence intensity (a.u.); for “ATTTGTTTTTACTTACTTGGCTTACTTCTTTCCAGTTAGACGGAGTCACCTAGTGCAG”, 8240 fluorescence intensity (a.u.); for “GGTTTTGATGCCCGAATCCGGCCTTTTCTCTGTCTATTTCCGGAGTCACCTAGTGCAG”, 11200 fluorescence intensity (a.u.).
Take “CCATCTCCGAGCTTCTTGTTGTTGTTGTTGTTGGTTTGGTCGGAGTCACCTAGTGCAG”: the binding signal is 12000 fluorescence intensity (a.u.).
With “GTTTGACCATTCGTCTTATTCAAAAAATTTACGTAATAATCGGAGTCACCTAGTGCAG” the figure was 8650 fluorescence intensity (a.u.).
For “GGGCCTGTTCACTTTGATGTCATTTTCAACCTTACTAAATCGGAGTCACCTAGTGCAG” the value was 10500 fluorescence intensity (a.u.); for “TGGGCCTTGCATGAGTTTGATTGACCCTATGGTCTGCGCACGGAGTCACCTAGTGCAG”, 8540 fluorescence intensity (a.u.).
Turning to “TACATCTGATTTTTTTTTGTTTCTCCACACCCTGATTGTTCGGAGTCACCTAGTGCAG”, the binding signal was 12000 fluorescence intensity (a.u.).
With “TCCCAGCCTCCATCTCCATCCCCACGGGACCATTCAATCTCGGAGTCACCTAGTGCAG” the figure was 8790 fluorescence intensity (a.u.).
Consider “GTAACCGTATTTCTGTTAAAATCCCGTGTTGTTTTTTATTCGGAGTCACCTAGTGCAG”, for which the binding signal is 13300 fluorescence intensity (a.u.).
Turning to “GACGAGGTCAAACGTTTATTAAAAAGTCAACGGCGTCGTACGGAGTCACCTAGTGCAG”, the binding signal was 11400 fluorescence intensity (a.u.).
“GACGCCGCCGCCGCCGCCGCCAGCCGCCACGTTATCCATGCGGAGTCACCTAGTGCAG”: the binding signal is 9530 fluorescence intensity (a.u.).
With “GTCGCGATCCTCTGCTTCTTCGTCGTCGACTGCACCTCCTCGGAGTCACCTAGTGCAG” the figure was 9880 fluorescence intensity (a.u.); with “ACGAATATATACTTCCACCATCTCAATTTTCGTAGATAATCGGAGTCACCTAGTGCAG”, 8290 fluorescence intensity (a.u.).
With “GCTGATGGTTTGTGTCGGGAGGGGAGGATTGAGGATGCTTCGGAGTCACCTAGTGCAG” the figure was 13700 fluorescence intensity (a.u.); with “CAAACGTACTCCTACTCTCCAAGCAGCCTATATAAACCACCGGAGTCACCTAGTGCAG”, 8590 fluorescence intensity (a.u.).
Consider “AGAGATTTGTTTGGTGAATGGTGATTTCTTCCTGTGATGACGGAGTCACCTAGTGCAG”, for which the binding signal was 13300 fluorescence intensity (a.u.).
For the sequence “GCTTTTACTCCAACTTGGGGATGGGGAGACATAGCAGATTCGGAGTCACCTAGTGCAG”, the binding signal was 9350 fluorescence intensity (a.u.).
Take “CCACCTTGTATATTCTAGAGTTCCCAATTTTGCTTCATTTCGGAGTCACCTAGTGCAG”: the binding signal was 8670 fluorescence intensity (a.u.).
In the case of “CTCACTCCTGGCGCCGGTGACCTCTCTGCCACTCCACCGGCGGAGTCACCTAGTGCAG”, the binding signal is 8550 fluorescence intensity (a.u.).
Regarding “ATATGTTAGACATATTTGCACTCTTTACTTGCTTTCATGCCGGAGTCACCTAGTGCAG”, the binding signal was 9530 fluorescence intensity (a.u.).
Take “GCTTACTATACTACTAATATATGGTCCCACCTGTCATACACGGAGTCACCTAGTGCAG”: the binding signal was 8150 fluorescence intensity (a.u.).
Turning to “GGGGTGCGGCGATTTCTACTCCCTTGGAGCTTGCATATGACGGAGTCACCTAGTGCAG”, the binding signal was 12200 fluorescence intensity (a.u.).
For “GGATGGAGGGTGCATATGAGACAACAACATTTAGCTCTCTCGGAGTCACCTAGTGCAG” the value was 8460 fluorescence intensity (a.u.); for “CTGCTGCTTCTTGGGAAATTTGTGGACAAATCATTCGGGGCGGAGTCACCTAGTGCAG”, 8440 fluorescence intensity (a.u.).
For “AGGGTTTTGGTCAAGTTAGAGAGGCTATTGGAGGACGTTTCGGAGTCACCTAGTGCAG” the value was 8100 fluorescence intensity (a.u.).
With “TGCCTCTCAACTTTGGTCACATGCTTTGAATTCCAACTCACGGAGTCACCTAGTGCAG” the figure was 12500 fluorescence intensity (a.u.).
On to “CGGTTCGCGCTGTTTTTCCTACGACACGCTCCAGTCAGGTCGGAGTCACCTAGTGCAG”, for which the binding signal is 8430 fluorescence intensity (a.u.).
Consider “TTTTCGCCGTAATATAGCTCTCTTGTACTACTGACGTGCCCGGAGTCACCTAGTGCAG”, for which the binding signal was 9510 fluorescence intensity (a.u.).
With “TGCTTTTTTTGGATTCCGCTTGCGCGGTTGCAGGTGGTGCCGGAGTCACCTAGTGCAG” the figure was 8370 fluorescence intensity (a.u.); with “TTCACTTGCCACATCATTTTTTGTCCTAAGTGACAACTTACGGAGTCACCTAGTGCAG”, 10100 fluorescence intensity (a.u.).
Consider “GAGATCTTCGGTGTACTTTTTCTTATTTAGGCGTCACGTACGGAGTCACCTAGTGCAG”, for which the binding signal was 10300 fluorescence intensity (a.u.).
For “ACCTCAACTTCTCATTCAATCACAACTCTCATCTATTTAACGGAGTCACCTAGTGCAG” the value was 8640 fluorescence intensity (a.u.); for “ACTTCCGAAACCACCAGGGTAGTAGATTTGCAACAATTTTCGGAGTCACCTAGTGCAG”, 8160 fluorescence intensity (a.u.).
With “ATCAACCAGTAATCAATTGACCAAGCGGTTCTTGCGCCTACGGAGTCACCTAGTGCAG”, the binding signal was 9780 fluorescence intensity (a.u.).
For “TCCGCTACTCTGTCCGCGGCCTGCTCGCGCTCCACTGCTCCGGAGTCACCTAGTGCAG” the value was 11600 fluorescence intensity (a.u.).
For “AGTTATGTTTTTGATTTTCCGATATTTATGATCCTGTTACCGGAGTCACCTAGTGCAG” the value was 8570 fluorescence intensity (a.u.).
For “GTCAGCGTGTCACGCGCCCACACCCACCCACGCACACCGACGGAGTCACCTAGTGCAG” the value was 8060 fluorescence intensity (a.u.); for “TTCTACTAAGTCTGTTTCTAATCCTGTACTAACTGTCGACCGGAGTCACCTAGTGCAG”, 8750 fluorescence intensity (a.u.); for “CACTTACATGGCACATCACTCCAGCTTTACCAGCATCATTCGGAGTCACCTAGTGCAG”, 15600 fluorescence intensity (a.u.).
With “CATCTCTCGTTCTCTTTTTTCATTCTTGGAAATCTGCACCCGGAGTCACCTAGTGCAG”, the binding signal was 8150 fluorescence intensity (a.u.).
With “CGGCGAGGCAGCTGGTTGTTTGTTGTTGGTTCCCTCTCCACGGAGTCACCTAGTGCAG” the figure was 8280 fluorescence intensity (a.u.); with “TTTCTTTTGCATTTTCCCTGTTCCATATCGTTTTTTTCTCCGGAGTCACCTAGTGCAG”, 8560 fluorescence intensity (a.u.); with “ACTAGATCCTCAAGTCCATGATATACCAGGTTTGTCCTTCCGGAGTCACCTAGTGCAG”, 8090 fluorescence intensity (a.u.).
With “AACATATTTAAAAAAGTCAACGGTGCCAAATATTTTGGAACGGAGTCACCTAGTGCAG” the figure was 13800 fluorescence intensity (a.u.).
With “AATACTCCGTTTTACACCTATATTCTTACTTTATTATTATCGGAGTCACCTAGTGCAG” the figure was 9330 fluorescence intensity (a.u.); with “GGTTTTTTTCCCGCTTATCCCACTTCTAGTCTATCTTTTTCGGAGTCACCTAGTGCAG”, 19300 fluorescence intensity (a.u.).
Turning to “CAAACCAAACGCCAATTAATGGCTTGACCAACCACCGCGCCGGAGTCACCTAGTGCAG”, the binding signal is 8500 fluorescence intensity (a.u.).

The values above are taken from publication PMC7819943, “Rice protein-binding microarrays: a tool to detect cis-acting elements near promoter regions in rice”.
